Where a name gives a salt, the structure may show the parent alone. The campaign covered roughly 2,100 compounds. About 180 (8.6%) showed an effect of 50% or more. The list shows a part of the results.

The test system of the assay is MOLM1 and UCSD/AML1 (averaged). As to the kind of experiment: cell viability relative to DMSO control (POC); higher = less growth inhibition. As to conditions: 1 µM; 72 h. How it is done: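 Primary viability screen in the 3q26 EVI1-high AML cell lines MOLM1 and UCSD/AML1 (1.5e3 cells/well, 384-well), compounds at 1 uM for 72 h. ATP CellTiter-Glo read-out given as percent of viable cells over DMSO control (POC), averaged over duplicates. DMSO was the negative control and 5 uM etoposide the positive control. This mapping covers the MicroSource Spectrum and Selleck anticancer libraries (drug names).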
In general, cell viability refers to a read-out of living cells in per cent, often relative to untreated cells. For the compound `CN1CCc2c(c3ccccc3n2Cc2ccccc2)C1`, the cell viability was 96.6%.

Regarding `O=c1cc(-c2cccc3c2Sc2ccccc2S3)oc(N2CCOCC2)c1`, the cell viability was 69.4%.

Turning to `N#Cc1c(O)c2c(-c3ccc(-c4ccccc4O)cc3)csc2[nH]c1=O`, the cell viability came to 97.3%.

As for `CCCCC(=O)O[C@H]1CC[C@H]2[C@@H]3CCc4cc(O)ccc4[C@H]3CC[C@]12C`, the cell viability was 103%.

In the case of `OCCOCCN1CCN(C2=Nc3ccccc3Sc3ccccc32)CC1`, the cell viability came to 85%.

Take `Cc1cc(O)c(C)c(O)c1C(=O)O`: the cell viability was 97.3%.

`CC1(C)S[C@@H]2[C@H](NC(=O)[C@H](N)c3ccc(O)cc3)C(=O)N2[C@H]1C(=O)O`: the cell viability is 99.4%.

For `COc1cccc2c1C(=O)c1c(O)c3c(c(O)c1C2=O)C[C@@](O)(C(=O)CO)C[C@@H]3O[C@H]1C[C@H](N)[C@H](O)[C@H](C)O1` [Doxorubicin (Adriamycin)], the cell viability was found to be 1.61%.

Consider `COc1cccc2c1C(=O)c1c(O)c3c(c(O)c1C2=O)C[C@@](O)(C(=O)CO)C[C@@H]3O[C@H]1C[C@H](N)[C@H](O)[C@H](C)O1`, for which the cell viability is 1.67%.

For `CN[C@@H]1[C@H](O[C@H]2[C@H](O[C@H]3[C@H](O)[C@@H](O)[C@H](N=C(N)N)[C@@H](O)[C@@H]3N=C(N)N)O[C@@H](C)[C@]2(O)C=O)O[C@@H](CO)[C@H](O)[C@H]1O`, the cell viability is 99.6%.

Take `Nc1nc(Cl)nc2c1ncn2[C@H]1C[C@H](O)[C@@H](CO)O1` [Cladribine]: the cell viability worked out at 5.67%.

For the compound `COc1ccccc1OCC(O)CO` (centres undefined), the cell viability was 101%.

Consider `COc1cc(C)c2c(c1C=O)Oc1c(c(C)c(O)c3c1C(O)OC3=O)OC2=O` (centres undefined), for which the cell viability amounted to 104%.

As for `CC[C@]1(O)C[C@H]2CN(CCc3c([nH]c4ccccc34)[C@@](C(=O)OC)(c3cc4c(cc3OC)N(C=O)[C@H]3[C@@](O)(C(=O)OC)[C@H](OC(C)=O)[C@]5(CC)C=CCN6CC[C@]43[C@@H]65)C2)C1`, the cell viability came to 11.3%.

Consider `CC[C@]1(O)C[C@H]2CN(CCc3c([nH]c4ccccc34)[C@@](C(=O)OC)(c3cc4c(cc3OC)N(C=O)[C@H]3[C@@](O)(C(=O)OC)[C@H](OC(C)=O)[C@]5(CC)C=CCN6CC[C@]43[C@@H]65)C2)C1` [Vincristine Sulfate], for which the cell viability was 7.83%.

On to `Cc1cc(=O)[nH]c(=S)[nH]1`, for which the cell viability came out at 92.9%.

In the case of `CN[C@@H](C)C(=O)N[C@H]1CN(C(=O)CC(C)C)CC[C@H]2CC[C@@H](C(=O)NC(c3ccccc3)c3ccccc3)N2C1=O`, the cell viability came to 68.5%.

With `Cc1cccc(C)c1OCC(C)N` (centres undefined), the cell viability amounted to 93.2%.

Regarding `CCN(CC)CCNC(=O)c1c(C)[nH]c(/C=C2\C(=O)Nc3ccc(F)cc32)c1C` [Sunitinib Malate (Sutent)], the cell viability was determined as 32.9%.

For the compound `CC(=O)N1CCCC1C(=O)O` (centres undefined), the cell viability was determined as 108%.

On to `Oc1ccc(/C=C/c2cc(O)cc(O)c2)cc1`, for which the cell viability was found to be 98.9%.

Consider `Cc1c(N(C)C)c(=O)n(-c2ccccc2)n1C`, for which the cell viability was found to be 98.6%.

Take `Oc1c(Cl)cc(Cl)c(Cl)c1Cc1c(O)c(Cl)cc(Cl)c1Cl`: the cell viability was 101%.

Regarding `CCOc1cc2ncc(C#N)c(Nc3ccc(F)c(Cl)c3)c2cc1NC(=O)/C=C/CN(C)C` [Pelitinib (EKB-569)], the cell viability worked out at 14.4%.

Regarding `C=CCc1cccc(/C=N/NC(=O)CN2CCN(Cc3ccccc3)CC2)c1O`, the cell viability stood at 79.4%.

As to `CC(C(=O)O)c1ccc2c(c1)[nH]c1ccc(Cl)cc12` (centres undefined), the cell viability amounted to 106%.

For the compound `O=C1c2c(O)cccc2C([C@@H]2O[C@H](CO)[C@@H](O)[C@H](O)[C@H]2O)c2cc(CO)cc(O)c21` (some centres undefined), the cell viability came to 99.7%.

As for `Nc1nc2[nH]cnc2c(=S)[nH]1`, the cell viability was 99.9%.

Take `CN(C)C(=O)C(CCN1CCC(O)(c2ccc(Cl)cc2)CC1)(c1ccccc1)c1ccccc1`: the cell viability is 104%.

As for `O=c1ccc2cc(O)c(O)cc2o1`, the cell viability was determined as 102%.

For the compound `C[C@H](CCC(=O)O)[C@H]1CC[C@H]2[C@@H]3[C@H](O)C[C@@H]4C[C@H](O)CC[C@]4(C)[C@H]3C[C@H](O)[C@]12C`, the cell viability is 100%.

`CC(C(=O)O)c1ccc(-c2ccccc2)c(F)c1` (centres undefined): the cell viability amounted to 98.2%.

Turning to `Cc1cc(O)c2c(c1)C(=O)c1cccc(O)c1C2=O`, the cell viability was determined as 115%.

`Cc1cc(O)c2c(c1)C(=O)c1cccc(O)c1C2=O` [Chrysophanic acid (Chrysophanol)]: the cell viability was found to be 93.8%.

As to `C[C@H]1O[C@@H](O[C@H]2[C@@H](O)C[C@H](O[C@H]3[C@@H](O)C[C@H](O[C@H]4CC[C@@]5(C)[C@H](CC[C@@H]6[C@@H]5C[C@@H](O)[C@]5(C)[C@@H](C7=CC(=O)OC7)CC[C@]65O)C4)O[C@@H]3C)O[C@@H]2C)C[C@H](O)[C@@H]1O`, the cell viability is 3.03%.

As to `COc1ccc(-c2cc(=O)c3c(O)c(OC)c(O[C@@H]4O[C@H](CO[C@@H]5O[C@@H](C)[C@H](O)[C@@H](O)[C@H]5O)[C@@H](O)[C@H](O)[C@H]4O)cc3o2)cc1`, the cell viability was determined as 101%.

As to `Cn1c(=O)[nH]c(=O)c2[nH]cnc21`, the cell viability was determined as 110%.

For the compound `O=C(C1CCCCC1)N1CC(=O)N2CCc3ccccc3C2C1` (centres undefined), the cell viability turned out to be 108%.

Turning to `C[C@]1(O)C[C@@H](c2nc(-c3ccc4ccc(-c5ccccc5)nc4c3)c3c(N)nccn32)C1` [OSI-906 (Linsitinib)], the cell viability amounted to 100%.

With `OC[C@H]1O[C@H](O[C@]2(CCl)O[C@H](CCl)[C@@H](O)[C@@H]2O)[C@H](O)[C@@H](O)[C@H]1Cl`, the cell viability worked out at 83.8%.

As for `CNC(=O)c1cc(Oc2ccc(NC(=O)Nc3cc(C(C)(C)C)nn3-c3ccc4ncccc4c3)c(F)c2)ccn1` [DCC-2036 (Rebastinib)], the cell viability was determined as 24.6%.

Turning to `O=C(O)[C@@H](O)[C@H](O)[C@H](O)[C@@H](O)C(=O)O`, the cell viability came to 106%.

Consider `Nc1nc2ccc(OC(F)(F)F)cc2s1`, for which the cell viability was 95.3%.

As to `Oc1cc(O)c2c(c1)O[C@H](c1ccc(O)c(O)c1)[C@H](O)C2`, the cell viability is 96.7%.

Consider `COc1ccc2c(c1)c(CC(=O)O)c(C)n2C(=O)c1ccc(Cl)cc1`, for which the cell viability was found to be 102%.

For the compound `CNC(=O)c1cc(Oc2ccc(NC(=O)Nc3ccc(Cl)c(C(F)(F)F)c3)c(F)c2)ccn1` [Regorafenib (BAY 73-4506)], the cell viability turned out to be 28.9%.

Take `C=C1c2c(Cl)ccc(O)c2C(=O)C2=C(O)[C@]3(O)C(=O)C(C(N)=O)=C(O)[C@@H](N(C)C)[C@@H]3[C@@H](O)[C@H]12.O=C(O)c1cc(S(=O)(=O)O)ccc1O`: the cell viability is 95.7%.

Regarding `O=C1C=C(O)C(=O)c2ccccc21`, the cell viability came to 92.9%.

On to `CC(=O)NCCCS(=O)(=O)O`, for which the cell viability stood at 94.3%.

Regarding `COc1ccc2c(c1OC)C(=O)O[C@@H]2[C@H]1c2c(cc3c(c2OC)OCO3)CCN1C`, the cell viability was 96.7%.

On to `O=C(CCc1ccc(O)cc1)c1c(O)cc(O)cc1O`, for which the cell viability came to 105%.

As for `O=C(CCc1ccc(O)cc1)c1c(O)cc(O)cc1O` [Phloretin (Dihydronaringenin)], the cell viability was 96.9%.

Take `CC(=O)NS(=O)(=O)c1ccc(NC(=O)c2ccccc2C(=O)O)cc1`: the cell viability worked out at 93.1%.

Take `COc1ccc(OC)c(C(O)CNC(=O)CN)c1` (centres undefined): the cell viability is 104%.

Consider `CN1CCN(CCCN2c3ccccc3Sc3ccc(C(F)(F)F)cc32)CC1`, for which the cell viability came out at 94.4%.

With `CNC[C@H](O)c1ccc(O)c(O)c1`, the cell viability stood at 94.8%.

For `CN(C(=O)C(Cl)Cl)c1ccc(OC(=O)c2ccco2)cc1`, the cell viability is 98.5%.

As for `CCc1cc(Nc2nccc(-c3c(-c4ccc(OC)c(C(=O)Nc5c(F)cccc5F)c4)nc4ccccn34)n2)c(OC)cc1N1CCC(N2CCN(S(C)(=O)=O)CC2)CC1`, the cell viability is 50.2%.

As to `CC(=O)c1ccc2c(c1)N(CCCN(C)C)c1ccccc1S2`, the cell viability is 99.2%.

For `CN(C)CCOC(C)(c1ccccc1)c1ccccn1` (centres undefined), the cell viability amounted to 105%.

`COc1cc2nccc(Oc3ccc(NC(=O)Nc4cc(C)on4)c(Cl)c3)c2cc1OC` [Tivozanib (AV-951)]: the cell viability came out at 31.8%.

On to `CC(C)(C#N)c1cc(Cn2cncn2)cc(C(C)(C)C#N)c1` [Anastrozole], for which the cell viability came out at 104%.

As to `C[C@H]1[C@H](C)CC[C@]2(CO)CC[C@]3(C)C(=CC[C@@H]4[C@@]5(C)CC[C@H](O)C(C)(C)[C@@H]5CC[C@]43C)[C@H]12`, the cell viability came out at 110%.

For the compound `Oc1c(I)cc(Cl)c2cccnc12`, the cell viability stood at 88.5%.

In the case of `O=C(O)c1cn(C2CC2)c2cc(N3CCNCC3)c(F)cc2c1=O`, the cell viability came out at 95.6%.

With `COc1cc(OC2CCN(C)CC2)ccc1Nc1ncc2c(n1)n(C1CCCC1)c(=O)n2C`, the cell viability amounted to 70.8%.

For `Cc1cc(C(C)(C)C)c(O)c(C(C)(C)C)c1`, the cell viability is 96.3%.

Take `COc1cc(C(=O)NCc2ccc(OCCN(C)C)cc2)cc(OC)c1OC`: the cell viability was found to be 97.1%.

As for `COc1ccc2c(c1)OC/C(=C/c1ccc(OC)c(OC)c1)C2=O`, the cell viability came to 108%.

Consider `C[C@@H]1CC[C@H]2[C@](C)(CO)[C@@H](O)CC[C@]2(C)[C@@]12CC[C@@](CO)(CCO)O2`, for which the cell viability was found to be 89.3%.

Turning to `C1CCC(C(CC2CCCCN2)C2CCCCC2)CC1` (centres undefined), the cell viability amounted to 92.1%.

Consider `CC(C)c1c(O)c(-c2cc3c(c(C(C)C)c2O)CCC2C(C)(C)CCC[C@]32C)cc2c1CCC1C(C)(C)CCC[C@]21C` (some centres undefined), for which the cell viability was found to be 87.3%.

As to `CC(=O)[C@@]1(O)CC[C@H]2[C@@H]3C[C@H](C)C4=CC(=O)C=C[C@]4(C)[C@@]3(F)[C@@H](O)C[C@@]21C`, the cell viability amounted to 75.3%.

Regarding `CCc1nc(N)nc(N)c1-c1ccc(Cl)cc1`, the cell viability came to 101%.

As to `C[C@H]1c2cccc(O)c2C(=O)C2=C(O)[C@]3(O)C(=O)C(C(N)=O)=C(O)[C@@H](N(C)C)[C@@H]3[C@@H](O)[C@@H]21`, the cell viability is 98.7%.

As for `C=CC(C1=CC(=O)C(OC)=CC1=O)c1ccccc1` (centres undefined), the cell viability turned out to be 79.2%.

Take `Clc1ccc(C(Cn2ccnc2)OCc2ccsc2Cl)c(Cl)c1` (centres undefined): the cell viability turned out to be 79.4%.

Take `C[C@](N)(Cc1ccc(O)c(O)c1)C(=O)O`: the cell viability turned out to be 98%.

In the case of `Cc1ccc(NC(=O)c2ccc(CN3CCN(C)CC3)cc2)cc1Nc1nccc(-c2cccnc2)n1` [Imatinib Mesylate], the cell viability was found to be 37.8%.

For `COc1c(CC(=O)c2cc3c(cc2O)OC(C)(C)C(O)C3)ccc2c1C=CC(C)(C)O2` (centres undefined), the cell viability was found to be 98%.

On to `CN[C@@H]1[C@H](O)[C@H](NC)[C@H]2O[C@@]3(O)C(=O)C[C@@H](C)O[C@H]3O[C@@H]2[C@H]1O`, for which the cell viability came out at 99.7%.

With `NS(=O)(=O)c1cc2c(cc1Cl)NC(C(Cl)Cl)NS2(=O)=O` (centres undefined), the cell viability is 106%.

As for `CN[C@H](CC(=O)O)C(=O)O`, the cell viability stood at 112%.

With `Cc1onc(-c2ccccc2Cl)c1C(=O)N[C@@H]1C(=O)N2[C@@H]1SC(C)(C)[C@@H]2C(=O)O`, the cell viability is 95.3%.

The values are drawn from the supplement of paper PMC11150407.
